The supplement of paper PMC7666118
This is one part of the list.

Amino acid sequences for entries named in this document (tags omitted). A change or cut given only in a name is not applied to a line headed by its entry.
UniProt Q10588: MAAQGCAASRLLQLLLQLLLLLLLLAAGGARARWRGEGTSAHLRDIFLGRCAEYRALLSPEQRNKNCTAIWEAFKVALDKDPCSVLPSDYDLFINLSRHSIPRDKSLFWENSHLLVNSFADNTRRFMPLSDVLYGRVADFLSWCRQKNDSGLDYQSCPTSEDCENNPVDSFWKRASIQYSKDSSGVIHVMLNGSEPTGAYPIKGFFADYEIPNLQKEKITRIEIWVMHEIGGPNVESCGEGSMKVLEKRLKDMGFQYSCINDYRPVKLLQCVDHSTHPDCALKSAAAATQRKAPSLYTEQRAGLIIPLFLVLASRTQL
UniProt Q6P0N0: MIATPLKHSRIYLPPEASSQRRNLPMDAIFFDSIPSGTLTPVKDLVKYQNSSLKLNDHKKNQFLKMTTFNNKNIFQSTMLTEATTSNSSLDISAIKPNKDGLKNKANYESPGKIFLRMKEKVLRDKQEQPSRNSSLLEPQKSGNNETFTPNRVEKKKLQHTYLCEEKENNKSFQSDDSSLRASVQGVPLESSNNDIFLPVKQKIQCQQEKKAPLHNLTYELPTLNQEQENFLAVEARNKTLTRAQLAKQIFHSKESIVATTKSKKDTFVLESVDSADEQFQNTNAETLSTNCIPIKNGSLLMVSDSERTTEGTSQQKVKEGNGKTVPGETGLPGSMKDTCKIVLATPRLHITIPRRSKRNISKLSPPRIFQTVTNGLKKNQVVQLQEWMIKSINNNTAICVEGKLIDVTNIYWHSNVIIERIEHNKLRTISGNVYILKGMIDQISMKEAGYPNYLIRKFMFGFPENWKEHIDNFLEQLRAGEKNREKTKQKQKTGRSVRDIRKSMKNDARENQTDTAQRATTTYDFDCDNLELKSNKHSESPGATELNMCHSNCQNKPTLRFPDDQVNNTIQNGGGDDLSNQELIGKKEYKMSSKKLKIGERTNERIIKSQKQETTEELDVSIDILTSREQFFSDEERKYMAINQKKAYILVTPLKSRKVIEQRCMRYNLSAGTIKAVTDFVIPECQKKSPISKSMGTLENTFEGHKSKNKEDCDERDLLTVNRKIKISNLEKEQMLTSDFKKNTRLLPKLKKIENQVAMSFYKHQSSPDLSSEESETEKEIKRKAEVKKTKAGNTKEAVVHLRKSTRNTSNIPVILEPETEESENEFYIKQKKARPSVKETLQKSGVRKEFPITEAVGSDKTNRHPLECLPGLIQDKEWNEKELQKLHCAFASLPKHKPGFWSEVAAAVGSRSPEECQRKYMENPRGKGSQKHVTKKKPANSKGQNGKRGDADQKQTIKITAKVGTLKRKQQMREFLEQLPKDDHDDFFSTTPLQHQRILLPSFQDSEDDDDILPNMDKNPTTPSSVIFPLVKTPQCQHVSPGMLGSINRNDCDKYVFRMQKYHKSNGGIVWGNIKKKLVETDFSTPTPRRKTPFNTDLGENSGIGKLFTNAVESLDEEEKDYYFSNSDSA
UniProt O15155: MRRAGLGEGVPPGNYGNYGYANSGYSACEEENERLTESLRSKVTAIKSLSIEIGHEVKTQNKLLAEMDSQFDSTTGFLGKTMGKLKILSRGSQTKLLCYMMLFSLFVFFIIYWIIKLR
UniProt O15382: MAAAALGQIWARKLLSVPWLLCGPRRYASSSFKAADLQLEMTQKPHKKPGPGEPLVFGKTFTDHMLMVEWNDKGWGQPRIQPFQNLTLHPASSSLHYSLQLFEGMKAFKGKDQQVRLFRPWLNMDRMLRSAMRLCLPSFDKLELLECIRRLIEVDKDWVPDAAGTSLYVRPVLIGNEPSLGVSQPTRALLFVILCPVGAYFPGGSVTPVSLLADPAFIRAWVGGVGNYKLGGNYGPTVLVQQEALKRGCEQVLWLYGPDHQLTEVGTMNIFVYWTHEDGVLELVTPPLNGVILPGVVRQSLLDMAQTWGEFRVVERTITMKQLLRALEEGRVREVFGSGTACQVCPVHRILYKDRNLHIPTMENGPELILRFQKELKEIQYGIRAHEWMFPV
UniProt Q8N6Q8: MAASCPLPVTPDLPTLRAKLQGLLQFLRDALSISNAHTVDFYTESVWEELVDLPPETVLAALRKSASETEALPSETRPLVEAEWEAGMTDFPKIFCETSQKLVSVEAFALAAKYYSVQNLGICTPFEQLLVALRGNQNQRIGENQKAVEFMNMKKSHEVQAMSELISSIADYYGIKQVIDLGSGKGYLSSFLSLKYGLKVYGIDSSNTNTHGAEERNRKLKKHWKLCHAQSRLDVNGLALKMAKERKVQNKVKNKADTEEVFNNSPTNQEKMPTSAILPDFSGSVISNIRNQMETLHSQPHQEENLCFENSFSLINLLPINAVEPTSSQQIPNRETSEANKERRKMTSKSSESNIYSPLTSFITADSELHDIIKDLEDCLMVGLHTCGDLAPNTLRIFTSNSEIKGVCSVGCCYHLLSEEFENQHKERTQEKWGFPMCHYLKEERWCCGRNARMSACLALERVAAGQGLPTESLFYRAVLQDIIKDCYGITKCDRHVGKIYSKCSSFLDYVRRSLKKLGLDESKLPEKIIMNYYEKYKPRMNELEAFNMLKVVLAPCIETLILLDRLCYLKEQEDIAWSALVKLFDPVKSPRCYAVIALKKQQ
UniProt Q96GQ5: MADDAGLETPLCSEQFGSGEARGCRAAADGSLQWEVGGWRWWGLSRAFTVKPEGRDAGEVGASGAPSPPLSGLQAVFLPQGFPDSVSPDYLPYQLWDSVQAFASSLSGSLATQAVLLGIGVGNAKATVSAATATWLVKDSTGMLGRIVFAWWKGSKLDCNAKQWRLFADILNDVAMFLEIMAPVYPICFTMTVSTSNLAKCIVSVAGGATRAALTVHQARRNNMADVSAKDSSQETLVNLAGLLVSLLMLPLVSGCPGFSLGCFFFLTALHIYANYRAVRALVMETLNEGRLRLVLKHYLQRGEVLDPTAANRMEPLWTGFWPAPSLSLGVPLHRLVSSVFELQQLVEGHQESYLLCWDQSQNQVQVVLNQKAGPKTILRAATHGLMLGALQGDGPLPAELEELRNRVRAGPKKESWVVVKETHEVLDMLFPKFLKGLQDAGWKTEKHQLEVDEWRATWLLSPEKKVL
UniProt Q9H0W9: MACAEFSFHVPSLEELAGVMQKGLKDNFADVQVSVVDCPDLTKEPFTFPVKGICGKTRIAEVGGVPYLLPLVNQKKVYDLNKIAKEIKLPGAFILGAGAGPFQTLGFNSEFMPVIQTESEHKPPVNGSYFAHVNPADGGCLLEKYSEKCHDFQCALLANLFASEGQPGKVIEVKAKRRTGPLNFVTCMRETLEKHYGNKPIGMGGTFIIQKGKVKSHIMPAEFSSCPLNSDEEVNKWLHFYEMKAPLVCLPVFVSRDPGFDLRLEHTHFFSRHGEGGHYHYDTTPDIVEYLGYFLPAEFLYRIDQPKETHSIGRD
UniProt P43251: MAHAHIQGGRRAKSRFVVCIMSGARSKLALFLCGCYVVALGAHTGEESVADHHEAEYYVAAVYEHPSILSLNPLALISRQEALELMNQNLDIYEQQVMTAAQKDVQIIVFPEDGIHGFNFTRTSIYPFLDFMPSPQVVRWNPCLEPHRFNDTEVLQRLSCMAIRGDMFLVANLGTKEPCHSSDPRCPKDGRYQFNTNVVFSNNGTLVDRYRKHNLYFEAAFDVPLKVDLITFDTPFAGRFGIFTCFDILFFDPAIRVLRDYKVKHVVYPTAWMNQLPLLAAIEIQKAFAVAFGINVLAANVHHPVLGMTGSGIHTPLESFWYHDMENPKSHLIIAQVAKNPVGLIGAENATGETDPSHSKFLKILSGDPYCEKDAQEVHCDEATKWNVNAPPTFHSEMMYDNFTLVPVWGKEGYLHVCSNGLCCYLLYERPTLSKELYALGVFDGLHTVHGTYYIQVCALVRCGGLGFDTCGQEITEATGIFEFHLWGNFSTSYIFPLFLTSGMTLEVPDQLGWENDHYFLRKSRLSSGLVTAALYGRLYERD

Each target was assayed with COc1ccc(Cn2ccc3cc(C)c(C(=O)NO)cc32)cc1 (assay: dose-dependent thermal stabilisation call (2D-TPP, DLPTP, 10% FDR) (binary (1 = stabilised)); higher = stabilised by the compound). Settings: system: HL-60 intact cells; concentration range 0.04-10 µM.
Procedure: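 2D thermal proteome profiling in intact HL-60 cells treated with BRD-3811 (0, 0.04, 0.29, 2, 10 uM) for 90 min at 37 C, then heated 3 min at one of 12 temperatures (42-63.9 C). Soluble protein was quantified by TMT10 MS. The value is the DLPTP call of the paper: dose-dependent thermal stabilisation over all temperatures at 10% FDR (F-test of a dose-response against a flat model); one experiment, one call per tested protein.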

Target | dose-dependent thermal stabilisation call
BST1 (UniProt Q10588) | inactive: 0
Ataxin-10 | inactive: 0
C14ORF106 (UniProt Q6P0N0) | inactive: 0
BET1 (UniProt O15155) | inactive: 0
BCAT2 (UniProt O15382) | inactive: 0
C12ORF26 (UniProt Q8N6Q8) | inactive: 0
C16ORF58 (UniProt Q96GQ5) | inactive: 0
C11ORF54 (UniProt Q9H0W9) | inactive: 0
BTD (UniProt P43251) | inactive: 0
